Measurements from patent publication US9328059B2, “Pharmaceutical composition for preventing or treating autophagy-related diseases, angiogenic diseases or melanin-related diseases” (INDUSTRY-ACADEMIC COOPERATION FOUNDATION, YONSEI UNIVERSITY, priority 2010, dated 2016).
At least one structure is not confirmed: it was looked up by name or label, or the drawing left a doubt.

Tested on: HeLa cells
Test: LC3 immunoblotting (LC3-I to LC3-II conversion) in HeLa
Format: cell-based, human
Conditions: inhibitor pre-treated 1 hr, indatraline 5 μM
Experimental: Soluble proteins were harvested from indatraline-treated HeLa cells by using SDS buffer (50 mM Tris HCl, pH 6.8, 10% glycerol, 2% SDS, 10 mM dithiothreitol, and 0.005% bromophenol blue). Equal volumes of proteins were separated by 12.5% SDS-PAGE and transferred to PVDF membranes (Millipore). Blots were then blocked and immunolabeled overnight at 4° C. using anti-LC3 antibody (MBL, Nagoya, Japan). Immunolabeling was visualized with enhanced chemiluminescence (ECL) kit (Amersham Life Science, Inc., Buckinghamshire, UK) according to the manufacturer's protocol. Tubulin was used as an internal control and was detected using anti-tubulin antibody (Upstate Biotechnology).
LC3 conversion was finally verified by immunoblotting. After indatraline treatment for 24 hrs, the conversion of LC3-I to LC3-II in cells was tested (FIG. 2A). Inductions of autophagy in both of HUVEC and HeLa cells were tested in concentration starting from 5 μM. In order to investigate signal pathway related to indatraline, well-known autophagy inhibitors 3-MA (10 mM), Bafilomycin A (100 nM), PD98059 (10 μM) and Wortmannin (100 nM) was treated with indatraline. The inhibitors were pre-treated for 1 hr before indatraline and treated with 5 μM or 10 μM of indatraline. […]

`COC[C@H]1OC(=O)c2coc3c2[C@@]1(C)C1=C(C3=O)[C@@H]2CCC(=O)[C@@]2(C)C[C@H]1OC(C)=O` [Wortmannin] was tested. Which “effect of autophagy inhibitor on indatraline-induced conversion of LC3-I to LC3-II” value did it give?
The value was “inhibited”.
